Binding data for 1 molecule are collected here from publication PMC11555231.

Amino acid sequences for entries named in this document (tags omitted).
UniProt Q9UM07: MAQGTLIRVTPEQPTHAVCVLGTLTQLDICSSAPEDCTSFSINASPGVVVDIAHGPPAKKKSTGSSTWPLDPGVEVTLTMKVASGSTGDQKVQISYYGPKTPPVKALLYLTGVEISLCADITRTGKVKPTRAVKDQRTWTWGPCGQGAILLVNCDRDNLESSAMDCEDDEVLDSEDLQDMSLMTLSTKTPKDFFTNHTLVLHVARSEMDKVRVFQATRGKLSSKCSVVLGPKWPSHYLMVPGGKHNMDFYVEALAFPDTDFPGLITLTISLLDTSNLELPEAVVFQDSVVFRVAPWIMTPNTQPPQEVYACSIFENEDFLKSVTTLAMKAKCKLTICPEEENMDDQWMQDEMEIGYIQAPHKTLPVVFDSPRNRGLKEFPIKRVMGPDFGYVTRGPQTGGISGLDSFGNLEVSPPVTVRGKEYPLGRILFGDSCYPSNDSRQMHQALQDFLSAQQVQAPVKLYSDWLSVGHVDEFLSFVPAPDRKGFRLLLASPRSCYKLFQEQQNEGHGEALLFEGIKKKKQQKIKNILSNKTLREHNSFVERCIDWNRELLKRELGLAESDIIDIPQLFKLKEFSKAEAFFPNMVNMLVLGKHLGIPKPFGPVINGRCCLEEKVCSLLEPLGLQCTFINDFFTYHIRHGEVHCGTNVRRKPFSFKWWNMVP

No constants are given. Whether binding was seen depends on the method and setting. Binding seen in cells or lysates may run through a third protein. Some results given as binding are weak or reduced against the parent protein; the word gives no strength.

Assay [1] has as its target human PADI4 stably expressed in mouse ES cells (hPADI4-stable) (human) (UniProt Q9UM07). Nature of the assay: pull-down; cellular hPADI4 isolated from lysate of hPADI4-stable mES cells by its ligand bio-PADI4_7 on streptavidin beads; partners detected by immunoblot.
The target of assay [2] is human PADI4 stably expressed in E14 mouse embryonic stem cells (hPADI4-stable) (human) (UniProt Q9UM07). Nature of the assay: pull-down; PADI4 isolated through bio-PADI4_7 on streptavidin beads from lysate of hPADI4-stable mES cells; associated proteins detected by immunoblot (Fig. S16B). On the technique in general: A western blot detects proteins with antibodies after separation by electrophoresis.

B1: Bcr (protein, UniProt Q6PAJ1 1-1270)
chain: MVDSVGFAEAWRAQFPDSEPPRMELRSVGDIEQELERCKASIRRLEQEVNQERFRMIYLQTLLAKEKKSYDRQRWGFRRAAQPPDGAAEPRASAPRPPPAPADGADPAPVEESEARPDGEGSPSKGRSASARRPAAAASADRDDRGPPTSVAALRSNFEKIRKGPAQPGSADAEKPFYVNVEFHHERGLVKVNDKEVSDRISSLGSQAMQMERKKSQQSAGQGLGEAPRPHYRGRSSESSCGLDGDYEDAELNPRFLKDNLINANGGNRPPWPPLEYQPYQSIYVGGMMVEGEGKSPLLRSQSTSEQEKRLTWPRRSYSPRSFEDSGGGYTPDCSSNENLTSSEEDFSSGQSSRVSPSPTTYRMFRDKSRSPSQNSQQSFDSSSPPTPQCQKRHRQCQVVVSEATIVGVRKTGQIWPSDGDSTFQGEADSSFGTPPGYGCAADQAEEQRRHQDGLPYIDDSPSSSPHLSSKGRGSLASGALDPTKVSELDLEKGLEMRKWVLSGILASEETYLSHLEALLLPMKPLKAAATTSQPVLTSQQIETIFFKVPELYEIHKEFYDGLFPRVQQWSHQQRVGDLFQKLASQLGVYRAFVDNYGVAMETAEKCCQANAQFAEISENLRARSNKDVKDSTTKNSLETLLYKPVDRVTRSTLVLHDLLKHTPSSHPDHSLLQDALRISQNFLSSINEEITPRRQSMTVKKGEHRQLLKDSFMVELVEGARKLRHIFLFTDLLLCTKLKKQSGGKTQQYDCKWYIPLTDLSFQMVDELEALPNIPLVPDEELDALKIKISQIKSDIQREKRANKGSKVMERLRKKLSEQESLLLLMSPSMAFRVHSRNGKSYTFLISSDYERAEWRESIREQQKKCFKSFSLTSVELQMLTNSCVKLQTVHHIPLTINKEDDESPGLYGFLHVIVHSATGFKQSSNLYCTLEVDSFGYFVNKAKTRVYRDTTEPNWNEEFEIELEGSQTLRILCYEKCYNKMKMTKEDGESADKLMGKGQVQLDPQTLQDRDWQRTVIDMNGIEVKLSVKFTSREFSLKRMPSRKQTGVFGVKIAVVTKRERSKVPYIVRQCVEEIERRGMEEVGIYRVSGVATDIQALKAAFDVNNKDVSVMMSEMDVNAIAGTLKLYFRELPEPLFTDEFYPNFAEGIALSDPVAKESCMLNLLLSLPEANLLTFLFLLDHLKRVAEKETVNKMSLHNLATVFGPTLLRPSEKESKLPANPSQPITMTDSWSLEVMSQVQVLLYFLQLEAIPAPDSKRQSILFSTEV
As for B1, the binding result in assay [1] and in assay [2] was “binds” throughout.
